Laboratory results from article PMC10506284.
These are yes or no findings as the source states them, for the method shown. Binding seen in cells or lysates may run through a third protein. Some results given as binding are weak or reduced against the parent protein; the word gives no strength. Where a sequence is shown, tags or fusion partners need not be part of it.

The chains behind the UniProt entries cited, without tags or fusion partners.
UniProt P08670: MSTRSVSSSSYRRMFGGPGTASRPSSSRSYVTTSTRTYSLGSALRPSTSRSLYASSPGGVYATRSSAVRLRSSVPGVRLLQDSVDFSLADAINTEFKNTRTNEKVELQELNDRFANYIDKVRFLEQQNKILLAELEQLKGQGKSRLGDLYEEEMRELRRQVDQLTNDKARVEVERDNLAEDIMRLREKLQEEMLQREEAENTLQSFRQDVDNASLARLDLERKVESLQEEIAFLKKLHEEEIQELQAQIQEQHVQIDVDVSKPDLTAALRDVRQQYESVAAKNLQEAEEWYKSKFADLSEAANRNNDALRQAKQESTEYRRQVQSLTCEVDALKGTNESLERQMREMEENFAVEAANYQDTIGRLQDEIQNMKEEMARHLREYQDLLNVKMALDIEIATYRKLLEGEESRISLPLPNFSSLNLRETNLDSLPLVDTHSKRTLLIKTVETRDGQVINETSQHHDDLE

Legend:
[1] = biological target: Flag-tagged Vimentin (human) (UniProt P08670); test: co-IP; co-IP of Vimentin with MAEA or LAD1 in MGC803 and MKN45 cells with increasing doses of the third protein (LAD1 or MAEA)
[2] = biological target: Flag-tagged Vimentin (human) (UniProt P08670); test: co-IP; exogenous tagged proteins in transfected cells (MGC803 and MKN45 where named); low salt lysis buffer, supernatant with antibody (HA, Flag, 6xHis, MYC) and beads at 4 C overnight
[3] = biological target: T1, HA-tagged Ladinin-1 (LAD1), full-length open reading frame (human) (UniProt O00515); test: as above
T1 sequence: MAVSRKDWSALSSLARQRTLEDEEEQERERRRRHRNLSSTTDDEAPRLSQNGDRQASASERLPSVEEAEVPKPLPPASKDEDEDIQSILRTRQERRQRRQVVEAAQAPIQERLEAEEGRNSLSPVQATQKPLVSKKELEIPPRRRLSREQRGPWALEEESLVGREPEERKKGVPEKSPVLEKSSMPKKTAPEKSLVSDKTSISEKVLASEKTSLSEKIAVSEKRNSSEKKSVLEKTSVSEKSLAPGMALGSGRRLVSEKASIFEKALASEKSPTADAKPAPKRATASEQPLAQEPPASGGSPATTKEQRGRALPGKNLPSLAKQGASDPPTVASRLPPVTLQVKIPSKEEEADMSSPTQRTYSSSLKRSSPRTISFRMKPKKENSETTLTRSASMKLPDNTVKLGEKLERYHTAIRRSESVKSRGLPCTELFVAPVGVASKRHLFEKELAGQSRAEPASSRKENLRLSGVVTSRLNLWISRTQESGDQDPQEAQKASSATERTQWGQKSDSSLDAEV

In the case of “Macrophage erythroblast attacher (MAEA), tagged, exogenous (from UniProt Q7L5Y9-1 1-396)”, the binding [1] is reported as “binds”, the binding [2] is reported as “binds” and the binding [3] is reported as “binds”.

B1: HA-tagged Ladinin-1 (LAD1), full-length open reading frame (protein, UniProt O00515 1-517)
chain: MAVSRKDWSALSSLARQRTLEDEEEQERERRRRHRNLSSTTDDEAPRLSQNGDRQASASERLPSVEEAEVPKPLPPASKDEDEDIQSILRTRQERRQRRQVVEAAQAPIQERLEAEEGRNSLSPVQATQKPLVSKKELEIPPRRRLSREQRGPWALEEESLVGREPEERKKGVPEKSPVLEKSSMPKKTAPEKSLVSDKTSISEKVLASEKTSLSEKIAVSEKRNSSEKKSVLEKTSVSEKSLAPGMALGSGRRLVSEKASIFEKALASEKSPTADAKPAPKRATASEQPLAQEPPASGGSPATTKEQRGRALPGKNLPSLAKQGASDPPTVASRLPPVTLQVKIPSKEEEADMSSPTQRTYSSSLKRSSPRTISFRMKPKKENSETTLTRSASMKLPDNTVKLGEKLERYHTAIRRSESVKSRGLPCTELFVAPVGVASKRHLFEKELAGQSRAEPASSRKENLRLSGVVTSRLNLWISRTQESGDQDPQEAQKASSATERTQWGQKSDSSLDAEV
B1 was tested, and the binding [1] was “binds” and the binding [2] was “binds”.
